Test results reported in article PMC12179280.
Results are given in words; binding and its absence hold for the method and conditions named. Binding seen in cells or lysates may run through a third protein. Some binding calls cover weakened binding; strength is not graded here.

Chains of the proteins cited; added tags and fusions are not shown.
UniProt P08754: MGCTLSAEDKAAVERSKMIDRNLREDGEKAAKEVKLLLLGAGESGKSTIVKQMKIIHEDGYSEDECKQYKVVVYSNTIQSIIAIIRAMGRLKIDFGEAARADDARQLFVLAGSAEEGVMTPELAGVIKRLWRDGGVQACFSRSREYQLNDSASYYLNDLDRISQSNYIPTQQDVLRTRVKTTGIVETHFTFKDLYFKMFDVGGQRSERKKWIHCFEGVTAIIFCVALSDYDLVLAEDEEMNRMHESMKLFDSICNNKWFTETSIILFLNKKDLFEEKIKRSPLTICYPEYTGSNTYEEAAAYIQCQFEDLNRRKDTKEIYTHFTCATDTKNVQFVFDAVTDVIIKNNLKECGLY
UniProt O95377: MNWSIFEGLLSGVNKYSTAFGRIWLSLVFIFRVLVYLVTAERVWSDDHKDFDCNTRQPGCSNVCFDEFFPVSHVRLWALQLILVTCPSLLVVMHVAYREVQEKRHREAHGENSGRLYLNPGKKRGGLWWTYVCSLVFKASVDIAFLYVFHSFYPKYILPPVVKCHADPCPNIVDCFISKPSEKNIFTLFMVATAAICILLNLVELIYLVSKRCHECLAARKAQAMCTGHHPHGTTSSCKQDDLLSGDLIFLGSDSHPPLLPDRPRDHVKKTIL

Experiments:
[1] = biological target: Gαi3 (G alpha inhibitory protein 3) (human (endogenous in primary cervical cancer cells and cervical cancer tissues)) (UniProt P08754); assay: co-IP; lysates of human cervical cancer tissues of three representative patients; endogenous proteins; protocol in ref. 30
[2] = biological target: Gαi3 (G alpha inhibitory protein 3) (human (endogenous in primary cervical cancer cells and cervical cancer tissues)) (UniProt P08754); assay: co-IP; lysates of priCC-1 and priCC-2 primary human cervical cancer cells; endogenous proteins; protocol in ref. 30

binding [1]: binds
binding [2]: binds
Substance: Gap junction protein beta 5 (from UniProt O95377 1-273)
